For this experiment, the system named is CED mice. Put plainly: CED mouse model, 8-week treatment: μCT of tibia and fracture incidence. Particulars: 100 μg/kg per week, 8 weeks, tibia cross-sections. As for the experimental part: All transgenic animals used in this study are as described in the Animals section. […] During cell counting, microCT analysis and histological staining analysis, all manual quantification is performed in a blind manner to eliminate observer bias. Animals were randomly assigned to groups for experiments in CED animal studies.
Mice: According to Tang et al., Nat Med. 15:757-765 (2009), a mutation in the coding area of the TGF-β1 latency protein was generated in mice, and the active form of TGF-β1 was secreted by osteoblasts. […] All mice received the intraperitoneal injections once a week for 2 months, beginning at 1 month of age until sacrifice at 3 months of age. The tibias of the mice were collected and analyzed.
Microcomputed tomography analysis: Tibia collected from mice were dissected to remove soft tissue, fixed overnight in 70% ethanol, and analyzed with a high-resolution microcomputed tomography (μCT) imaging system (MicroCT40; Scanco Medical AG, Basserdorf, Switzerland). The scanner was set at a voltage of 55 kVp and a current of 109 μA. The resulting two-dimensional longitude-sectional images or three-dimensional whole-bone images are shown in gray scale. Three-dimensional structural parameters, total bone volume per tissue volume, cortical bone volume, cortical bone thickness, and cortical bone porosity were given.

SMILES strings stand for the structures.

In the case of `NCCCC(O)(P(=O)(O)O)P(=O)(O)O` [ALN, 4-amino-1-hydroxybutylidene-1,1-bisphosphonic acid monosodium trihydrate, reference compound], the “total BV/TV distribution” value is listed as “unregulated states”.

The record behind these values is patent US12049475B2, “Bisphosphonate drug conjugates” (BRISE PHARMACEUTICALS CO., LTD., priority 2018, dated 2024).
